# Results as given in publication PMC2900304.
# Results are given in words; binding and its absence hold for the method and conditions named. Binding seen in cells or lysates may run through a third protein. Some binding calls cover weakened binding; strength is not graded here. For part of these data: Where a sequence is shown, tags or fusion partners need not be part of it.
# T1: human R1 (HR1), ribonucleotide reductase large subunit, endogenous (human (endogenous in HeLa)) (UniProt P23921)
# T1 sequence: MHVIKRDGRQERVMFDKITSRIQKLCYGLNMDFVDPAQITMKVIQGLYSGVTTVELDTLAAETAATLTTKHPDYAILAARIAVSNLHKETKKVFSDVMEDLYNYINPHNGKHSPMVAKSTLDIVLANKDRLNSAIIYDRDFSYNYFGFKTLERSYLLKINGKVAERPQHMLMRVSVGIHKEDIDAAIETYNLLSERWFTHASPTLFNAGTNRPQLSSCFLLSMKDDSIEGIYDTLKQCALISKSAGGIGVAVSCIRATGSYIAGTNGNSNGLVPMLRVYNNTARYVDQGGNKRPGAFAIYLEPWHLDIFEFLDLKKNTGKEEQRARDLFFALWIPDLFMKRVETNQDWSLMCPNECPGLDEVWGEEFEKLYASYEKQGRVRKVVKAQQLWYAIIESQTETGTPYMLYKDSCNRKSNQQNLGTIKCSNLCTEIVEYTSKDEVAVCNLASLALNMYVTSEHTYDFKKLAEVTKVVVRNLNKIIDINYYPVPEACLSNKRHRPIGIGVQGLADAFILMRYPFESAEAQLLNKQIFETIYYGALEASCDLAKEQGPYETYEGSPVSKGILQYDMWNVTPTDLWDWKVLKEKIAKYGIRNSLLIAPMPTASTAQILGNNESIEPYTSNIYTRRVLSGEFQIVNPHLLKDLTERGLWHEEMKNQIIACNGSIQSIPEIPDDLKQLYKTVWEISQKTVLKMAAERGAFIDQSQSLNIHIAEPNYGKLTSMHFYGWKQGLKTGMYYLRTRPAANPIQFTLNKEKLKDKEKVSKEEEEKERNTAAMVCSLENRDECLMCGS
# T2: Flag-tagged human R1 (Flag-tagged HR1) (human) (UniProt P23921)
# T2 sequence: T1 sequence
# T3: human p53R2 (Hp53R2), endogenous (human (endogenous in HeLa)) (UniProt Q7LG56)
# T3 sequence: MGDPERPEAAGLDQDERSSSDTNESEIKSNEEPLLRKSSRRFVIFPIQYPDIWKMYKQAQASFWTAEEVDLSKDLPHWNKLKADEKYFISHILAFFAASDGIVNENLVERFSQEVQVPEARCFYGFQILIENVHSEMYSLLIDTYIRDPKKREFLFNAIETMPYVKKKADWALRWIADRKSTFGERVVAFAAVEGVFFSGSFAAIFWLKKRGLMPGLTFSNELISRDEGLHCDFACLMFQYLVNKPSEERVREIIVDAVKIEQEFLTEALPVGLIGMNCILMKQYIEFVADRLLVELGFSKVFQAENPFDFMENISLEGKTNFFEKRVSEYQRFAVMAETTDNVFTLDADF
# T4: human R2 (HR2), ribonucleotide reductase small subunit, endogenous (human (endogenous in HeLa)) (UniProt P31350)
# T4 sequence: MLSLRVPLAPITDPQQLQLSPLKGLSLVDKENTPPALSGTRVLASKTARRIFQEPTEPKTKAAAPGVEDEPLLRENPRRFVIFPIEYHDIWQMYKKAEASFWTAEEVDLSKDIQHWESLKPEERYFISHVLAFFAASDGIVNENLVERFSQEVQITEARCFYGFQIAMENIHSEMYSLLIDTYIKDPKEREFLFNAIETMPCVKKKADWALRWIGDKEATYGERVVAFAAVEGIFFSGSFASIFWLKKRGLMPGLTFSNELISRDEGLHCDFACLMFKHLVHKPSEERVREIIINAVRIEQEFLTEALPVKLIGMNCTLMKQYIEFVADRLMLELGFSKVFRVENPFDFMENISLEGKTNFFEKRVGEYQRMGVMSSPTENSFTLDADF
# B1: human R2 (HR2), ribonucleotide reductase small subunit, endogenous (protein, UniProt P31350-1 1-389)
# chain: T4 sequence
# B2: human p53R2 (Hp53R2), endogenous (protein, UniProt Q7LG56 1-351)
# chain: T3 sequence
# B3: human R1 (HR1), ribonucleotide reductase large subunit, endogenous (protein, UniProt P23921 1-792)
# chain: T1 sequence
# Key:
# Test in all cases: co-IP
# [1] = target: T1, human R1 (HR1), ribonucleotide reductase large subunit, endogenous (human (endogenous in HeLa))
# [2] = target: Flag-tagged vaccinia virus I4 (R1 subunit) (vaccinia virus (strain Western Reserve)) (UniProt P12848)
# [3] = target: T2, Flag-tagged human R1 (Flag-tagged HR1) (human)
# [4] = target: T3, human p53R2 (Hp53R2), endogenous (human (endogenous in HeLa))
# [5] = target: T4, human R2 (HR2), ribonucleotide reductase small subunit, endogenous (human (endogenous in HeLa))
# [6] = target: His6-tagged vaccinia virus F4 (vaccinia virus (strain Western Reserve)) (UniProt P11158)
Molecule,binding [1],binding [2],further results
His6-tagged vaccinia virus F4 (from UniProt P11158 1-319),binds,–,–
"vaccinia virus (VACV) F4, ribonucleotide reductase small subunit (R2) (from UniProt P11158 1-319)",binds,binds,binding [3]: binds; binding [4]: binds; binding [5]: binds
B1,–,binds,–
B2,–,binds,–
B3,–,–,binding [6]: binds
